Patent US4551445A, “Derivatives of arginine vasopressin antagonists” (The Medical College of Ohio, priority 1983, dated 1985)
Not every detail of the peptide structures is certain; ends, links or a residue may be inferred. Starred links: 1 amine or outer side, 2 acyl side, 3 side chain; linkers in the order of their positions; H or OH if unused. Positions of bridges follow the written chain, without caps; N, C: chain ends. Non-standard residues stand in square brackets, D forms with d. Residues, ends and D or L forms follow the SMILES beside them. X1 = O=C(CC1(S[*:2])CCCCC1)[*:1]; ΔPro = O=C(O)[C@@H]1C=CCN1

Assays:
[1] = tested on: antidiuretic response to arginine vasopressin (ADH); experiment: Anti-antidiuretic: antagonism of the antidiuretic response to subsequent injections of vasopressin; type: in vivo, rats
Description: Activity as antidiuretic agonists was determined by intravenous injection of the compounds being evaluated in ethanol-anesthesized water-loaded rats in accordance with Sawyer, Endocrinology, vol. 63 (1958) at 694. Antagonism of the response to subsequent injections of vasopressin was tested as described by Sawyer et al., Science, vol. 212 (1981) at 49.
(§1) Antagonistic potencies were determined and expressed as "effective doses" and pA2 values. The "effective dose" is defined as the dose (in nanomoles per kilogram) that reduces the response seen from 2x units of agonist injected 20 min after the dose of antagonist to the response with 1x units of agonist. Estimated in vivo "pA2 " values represent the negative logarithms of the effective doses, divided by the estimated volume of distribution (67 ml/kg).

[2] = tested on: vasopressor response to arginine vasopressin; experiment: Antivasopressor: antagonism to the vasopressor response (Dyckes et al.); type: in vivo; settings: for Antivasopressor Potency ED / AD/VP: Table 2; for AD/VP: ratio, values fit antivasopressor ED / anti-antidiuretic ED
Description: Antagonism to the vasopressor response was estimated in accordance with Dyckes et al., J. Med. Chem., vol. 17 (1974) at 969. The values are expressed as pA2 values, defined as in Schild et al., Br. J. Pharmacol., vol. 2 (1947) at 189.
as §1

SMILES	Anti-Antidiuretic ED ([1]; Table 1, dose reducing response to 2x units of agonist, injected 20 min later, to response with 1x units)	Anti-Antidiuretic pA2 ([1]; Table 1, estimated in vivo pA2, volume of distribution 67 ml/kg)	Antivasopressor ED ([2]; Table 1, effective dose)	Antivasopressor pA2 ([2]; Table 1, estimated in vivo pA2)	Anti-Antidiuretic ED ([1]; Table 2, effective dose)	Antivasopressor Potency ED ([2]; effective dose)	AD/VP [2]
CCOc1ccc(C[C@H]2NC(=O)CC3(CCCCC3)SSC[C@@H](C(=O)N3CC=C[C@H]3C(=O)N[C@@H](CCCNC(=N)N)C(=O)NCC(N)=O)NC(=O)[C@H](CC(N)=O)NC(=O)[C@H](C(C)C)NC(=O)[C@H](Cc3ccccc3)NC2=O)cc1 [d(CH2)5 D-Tyr(Et)^2 --Δ^3 -Pro^7 VAVP] ([dY](Et)FVNC[ΔPro]RG-NH2; linker N-5 via X1)	1.5 ± 0.2 nmol/kg	7.66 ± 0.08	0.62 ± 0.04 nmol/kg	8.03 ± 0.03	–	–	–
CCOc1ccc(C[C@H]2NC(=O)CC3(CCCCC3)SSC[C@@H](C(=O)N3CCC[C@H]3C(=O)N[C@@H](CCCCN)C(=O)NCC(N)=O)NC(=O)[C@H](CC(N)=O)NC(=O)[C@H](C(C)C)NC(=O)[C@H](Cc3ccccc3)NC2=O)cc1 [d(CH2)5 D-Tyr(Et)^2 Val^4 Lys^8 VP] ([dY](Et)FVNCPKG-NH2; linker N-5 via X1)	–	–	–	–	1.5 ± 0.4 nmol/kg	0.48 ± 0.08 nmol/kg	0.3
CCOc1ccc(C[C@@H]2NC(=O)CC3(CCCCC3)SSC[C@@H](C(=O)N3CCC[C@H]3C(=O)N[C@@H](CCCCN)C(=O)NCC(N)=O)NC(=O)[C@H](CC(N)=O)NC(=O)[C@H](C(C)C)NC(=O)[C@H](Cc3ccccc3)NC2=O)cc1 [d(CH2)5 Tyr(Et)^2 Val^4 Lys^8 VP] (Y(Et)FVNCPKG-NH2; linker N-5 via X1)	–	–	–	–	3.9 ± 0.7 nmol/kg	0.67 ± 0.09 nmol/kg	0.2
